# Record: PubChem BioAssay AID504774 (Drosophila RNAi Screening Center, 2011)
# Purpose: 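Knock-downs that shift viability of MMS-exposed cells relative to untreated ones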 (primary screen)
# Cell system: Drosophila Kc167 cells
# Knock-down reagent: long dsRNA against Drosophila genes, about 0.25 µg dsRNA per well
# Timing: about 6 days: 3 days knock-down, then 3 days with or without MMS
# Treatment: methyl methanesulphonate 0.004% (w/v) for 3 days after knock-down
# Measurement: 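ATP-dependent luminescence as a measure of live cells in MMS-exposed wells, quantile normalised within each plate, with replicate values also given as a mean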
# Scale: mean viability with MMS: higher = more surviving cells after MMS
# In all, the deposit lists about 23,000 reagents; below is a random part of those with a known target gene and a result. 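Values are quantile-normalised luminescence on an arbitrary scale; higher means more cells surviving MMS.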 A plus sign joins genes that one reagent is predicted to hit. Not all columns of the deposit are shown.
predicted target,dsRNA,mean viability with MMS
CG31538,DRSC12059,3.63e6
CG30043,DRSC06285,3.51e6
CG12511,DRSC02171,3.78e6
UQCR-11L (Ubiquinol-cytochrome c reductase 11 kDa subunit-like),DRSC22166,3.50e6
CG3770,DRSC04416,3.44e6
arr (arrow),DRSC07451,3.66e6
wit (wishful thinking),DRSC08741,3.65e6
CG31760,DRSC02590,3.61e6
CG32461,DRSC11594,3.31e6
CG5510,DRSC15823,3.67e6
CG30034 (retired record),DRSC05288,3.43e6
Mrgn1 (Mahogunin ring finger 1),DRSC20223,3.41e6
CG10962,DRSC18421,3.36e6
CG1598,DRSC06598,3.42e6
Polr1C (RNA polymerase I and III subunit C),DRSC02719,3.18e6
"Edem2 (ER degradation enhancer, mannosidase alpha-like 2)",DRSC02877,3.68e6
RpS14b (Ribosomal protein S14b),DRSC18711,2.86e6
CG31431,DRSC14589,3.52e6
cry (cryptochrome),DRSC16928,3.44e6
Gabat (gamma-aminobutyric acid transaminase),DRSC10846,3.48e6
CG12126,DRSC06103,3.65e6
CG17068,DRSC20545,3.66e6
l(3)80Fj (lethal (3) 80Fj),DRSC20986,2.65e6
l(3)80Fj (lethal (3) 80Fj),DRSC20989,3.72e6
CG31459,DRSC13380,3.56e6
CG11563,DRSC14327,3.65e6
CG8950,DRSC07300,3.38e6
IFT57 (Intraflagellar transport 57),DRSC00720,3.72e6
Lar (Leukocyte-antigen-related-like),DRSC01707,3.49e6
Lar (Leukocyte-antigen-related-like),DRSC03361,3.54e6

Laid out differently: 5 of the entries above.
wit (wishful thinking) [DRSC08741] — mean viability with MMS = 3.65e6
CG31760 [DRSC02590] — mean viability with MMS = 3.61e6
CG32461 [DRSC11594] — mean viability with MMS = 3.31e6
CG5510 [DRSC15823] — mean viability with MMS = 3.67e6
CG30034 (retired record) [DRSC05288] — mean viability with MMS = 3.43e6

Next entries follow:
predicted target,dsRNA,mean viability with MMS
CG8206,DRSC20093,3.52e6
Seipin,DRSC18654,3.63e6
CG15408,DRSC00423,3.53e6
RpL30 (Ribosomal protein L30),DRSC02087,3.22e6
CG16710,DRSC15136,3.42e6
Not11 (CCR4-NOT transcription complex subunit 11),DRSC04204,3.62e6
CG42394 + CG6567,DRSC12821,3.40e6
CG10062,DRSC05960,3.80e6
CG10062,DRSC22535,3.77e6
mRpL39 (mitochondrial ribosomal protein L39),DRSC10255,3.62e6
Gnmt (Glycine N-methyltransferase),DRSC15987,3.52e6
mbl (muscleblind),DRSC05657,3.62e6
mbl (muscleblind),DRSC06449,3.24e6
mbl (muscleblind),DRSC07651,3.46e6
mbl (muscleblind),DRSC23188,3.51e6
CG3164,DRSC00572,3.50e6
